These are yes or no findings as the source states them, for the method shown. Binding can be weak; no strength is given.
Columns and labels:
Test in all cases: partitioning into a condensed FG phase (confocal laser scanning microscopy); Atto488-labelled guest (0.125-3 μM, below its saturation concentration) mixed on ice with unlabelled host FG domain (about 5 μM), phase separation at 21 °C (294 K); 20 mM NaPi pH 6.8, 5 mM DTT, 150 mM NaCl (also 300 and 600 mM for the host prf.GLFG_(52×12)[+GLEBS]); partition coefficient = signal inside FG phase : signal in buffer; both purified
[1] = biological target: ScNup116 FG domain (Saccharomyces cerevisiae)
[2] = biological target: TtMac98A FG domain (Tetrahymena thermophila)
[3] = biological target: AtNup98B FG domain (Arabidopsis thaliana)
[4] = biological target: BfNup98 FG domain (Branchiostoma floridae)
[5] = biological target: XtNup98 FG domain (Xenopus tropicalis)

Measured: binding

B1: Atto488-labelled prf.GLFG_(18×12) (domain or fragment)
chain: GGLFGGNTQPATGGLFGGNTQPATGGLFGGNTQPATGGLFGGNTQPATGGLFGGNTQPATGGLFGGNTQPATGGLFGGNTQPATGGLFGGNTQPATGGLFGGNTQPATGGLFGGNTQPATGGLFGGNTQPATGGLFGGNTQPATGGLFGGNTQPATGGLFGGNTQPATGGLFGGNTQPATGGLFGGNTQPATGGLFGGNTQPATGGLFGGNTQPATC
modifications: Atto488-maleimide on the additional C-terminal cysteine
binds: all assays above

B2: Atto488-labelled prf.GLFG_(26×12) (domain or fragment)
chain: GGLFGGNTQPATGGLFGGNTQPATGGLFGGNTQPATGGLFGGNTQPATGGLFGGNTQPATGGLFGGNTQPATGGLFGGNTQPATGGLFGGNTQPATGGLFGGNTQPATGGLFGGNTQPATGGLFGGNTQPATGGLFGGNTQPATGGLFGGNTQPATGGLFGGNTQPATGGLFGGNTQPATGGLFGGNTQPATGGLFGGNTQPATGGLFGGNTQPATGGLFGGNTQPATGGLFGGNTQPATGGLFGGNTQPATGGLFGGNTQPATGGLFGGNTQPATGGLFGGNTQPATGGLFGGNTQPATGGLFGGNTQPATC
modifications: Atto488-maleimide on the additional C-terminal cysteine
binds: all assays above

B3: Atto488-labelled prf.GLFG_(44×12) (domain or fragment)
chain: GGLFGGNTQPATGGLFGGNTQPATGGLFGGNTQPATGGLFGGNTQPATGGLFGGNTQPATGGLFGGNTQPATGGLFGGNTQPATGGLFGGNTQPATGGLFGGNTQPATGGLFGGNTQPATGGLFGGNTQPATGGLFGGNTQPATGGLFGGNTQPATGGLFGGNTQPATGGLFGGNTQPATGGLFGGNTQPATGGLFGGNTQPATGGLFGGNTQPATGGLFGGNTQPATGGLFGGNTQPATGGLFGGNTQPATGGLFGGNTQPATGGLFGGNTQPATGGLFGGNTQPATGGLFGGNTQPATGGLFGGNTQPATGGLFGGNTQPATGGLFGGNTQPATGGLFGGNTQPATGGLFGGNTQPATGGLFGGNTQPATGGLFGGNTQPATGGLFGGNTQPATGGLFGGNTQPATGGLFGGNTQPATGGLFGGNTQPATGGLFGGNTQPATGGLFGGNTQPATGGLFGGNTQPATGGLFGGNTQPATGGLFGGNTQPATGGLFGGNTQPATGGLFGGNTQPATGGLFGGNTQPATC
modifications: Atto488-maleimide on the additional C-terminal cysteine
binds: all assays above

B4: Atto488-labelled prf.GLFG_(70×12) (domain or fragment)
chain: GGLFGGNTQPATGGLFGGNTQPATGGLFGGNTQPATGGLFGGNTQPATGGLFGGNTQPATGGLFGGNTQPATGGLFGGNTQPATGGLFGGNTQPATGGLFGGNTQPATGGLFGGNTQPATGGLFGGNTQPATGGLFGGNTQPATGGLFGGNTQPATGGLFGGNTQPATGGLFGGNTQPATGGLFGGNTQPATGGLFGGNTQPATGGLFGGNTQPATGGLFGGNTQPATGGLFGGNTQPATGGLFGGNTQPATGGLFGGNTQPATGGLFGGNTQPATGGLFGGNTQPATGGLFGGNTQPATGGLFGGNTQPATGGLFGGNTQPATGGLFGGNTQPATGGLFGGNTQPATGGLFGGNTQPATGGLFGGNTQPATGGLFGGNTQPATGGLFGGNTQPATGGLFGGNTQPATGGLFGGNTQPATGGLFGGNTQPATGGLFGGNTQPATGGLFGGNTQPATGGLFGGNTQPATGGLFGGNTQPATGGLFGGNTQPATGGLFGGNTQPATGGLFGGNTQPATGGLFGGNTQPATGGLFGGNTQPATGGLFGGNTQPATGGLFGGNTQPATGGLFGGNTQPATGGLFGGNTQPATGGLFGGNTQPATGGLFGGNTQPATGGLFGGNTQPATGGLFGGNTQPATGGLFGGNTQPATGGLFGGNTQPATGGLFGGNTQPATGGLFGGNTQPATGGLFGGNTQPATGGLFGGNTQPATGGLFGGNTQPATGGLFGGNTQPATGGLFGGNTQPATGGLFGGNTQPATGGLFGGNTQPATGGLFGGNTQPATGGLFGGNTQPATGGLFGGNTQPATGGLFGGNTQPATGGLFGGNTQPATC
modifications: Atto488-maleimide on the additional C-terminal cysteine
binds: all assays above

B5: Atto488-labelled prf.GLFG_(7×12) (domain or fragment)
chain: GGLFGGNTQPATGGLFGGNTQPATGGLFGGNTQPATGGLFGGNTQPATGGLFGGNTQPATGGLFGGNTQPATGGLFGGNTQPATC
modifications: Atto488-maleimide on the additional C-terminal cysteine
binds: all assays above

B6: Atto488-labelled prf.GLFG_(13×12) (domain or fragment)
chain: GGLFGGNTQPATGGLFGGNTQPATGGLFGGNTQPATGGLFGGNTQPATGGLFGGNTQPATGGLFGGNTQPATGGLFGGNTQPATGGLFGGNTQPATGGLFGGNTQPATGGLFGGNTQPATGGLFGGNTQPATGGLFGGNTQPATGGLFGGNTQPATC
modifications: Atto488-maleimide on the additional C-terminal cysteine
binds: all assays above

B7: Atto488-labelled prf.GLFG_(37×12) (domain or fragment)
chain: GGLFGGNTQPATGGLFGGNTQPATGGLFGGNTQPATGGLFGGNTQPATGGLFGGNTQPATGGLFGGNTQPATGGLFGGNTQPATGGLFGGNTQPATGGLFGGNTQPATGGLFGGNTQPATGGLFGGNTQPATGGLFGGNTQPATGGLFGGNTQPATGGLFGGNTQPATGGLFGGNTQPATGGLFGGNTQPATGGLFGGNTQPATGGLFGGNTQPATGGLFGGNTQPATGGLFGGNTQPATGGLFGGNTQPATGGLFGGNTQPATGGLFGGNTQPATGGLFGGNTQPATGGLFGGNTQPATGGLFGGNTQPATGGLFGGNTQPATGGLFGGNTQPATGGLFGGNTQPATGGLFGGNTQPATGGLFGGNTQPATGGLFGGNTQPATGGLFGGNTQPATGGLFGGNTQPATGGLFGGNTQPATGGLFGGNTQPATGGLFGGNTQPATC
modifications: Atto488-maleimide on the additional C-terminal cysteine
binds: all assays above

B8: Atto488-labelled prf.GLFG_(52×12) (domain or fragment)
chain: GGLFGGNTQPATGGLFGGNTQPATGGLFGGNTQPATGGLFGGNTQPATGGLFGGNTQPATGGLFGGNTQPATGGLFGGNTQPATGGLFGGNTQPATGGLFGGNTQPATGGLFGGNTQPATGGLFGGNTQPATGGLFGGNTQPATGGLFGGNTQPATGGLFGGNTQPATGGLFGGNTQPATGGLFGGNTQPATGGLFGGNTQPATGGLFGGNTQPATGGLFGGNTQPATGGLFGGNTQPATGGLFGGNTQPATGGLFGGNTQPATGGLFGGNTQPATGGLFGGNTQPATGGLFGGNTQPATGGLFGGNTQPATGGLFGGNTQPATGGLFGGNTQPATGGLFGGNTQPATGGLFGGNTQPATGGLFGGNTQPATGGLFGGNTQPATGGLFGGNTQPATGGLFGGNTQPATGGLFGGNTQPATGGLFGGNTQPATGGLFGGNTQPATGGLFGGNTQPATGGLFGGNTQPATGGLFGGNTQPATGGLFGGNTQPATGGLFGGNTQPATGGLFGGNTQPATGGLFGGNTQPATGGLFGGNTQPATGGLFGGNTQPATGGLFGGNTQPATGGLFGGNTQPATGGLFGGNTQPATGGLFGGNTQPATGGLFGGNTQPATGGLFGGNTQPATC
modifications: Atto488-maleimide on the additional C-terminal cysteine
binds: all assays above
